Test results from PubChem BioAssay AID256 (DTP/NCI, 2004).
The list does not hold the whole screen: it is rich in T/C values a quarter to a half above the control, in often repeated tests (any T/C) and in doses without a T/C. Other doses and runs of a compound stand elsewhere. T/C is the treated group as % of the vehicle group. Some entries give survivors of the animals treated and no T/C: the source files T/C as zero there, which appears to mark a toxic dose or a test without result, not a measured value. Some doses without a T/C left all or most animals alive at the check, yet need not have been tolerated: survival well below the control is almost never listed, so the zero probably covers shortened survival too. Counts of survivors are from the toxicity check (mostly the fifth day) where no day follows; animals may have died later. Schedule codes are those of the source, read here as Q, the interval in days (D) or hours (H), X, the number of doses. Some doses were run more than once; the values are given in rising order. Where survival is the endpoint, the PubChem record calls one and a half times the control and up active, and a quarter to a half above the control has no call in these data; cut-offs in other NCI protocols can differ. Some T/C values are followed by the survivors on the day toxicity was checked, most often the fifth; where none is given, no animal had died by that day.

Tested on: CD2F1 mice, L1210 leukemia ip, survival T/C
Assay: NCI In Vivo Anticancer Drug Screen. Data for tumor model L1210 Leukemia (intraperitoneal) in CD2F1 (CDF1) mice
Conditions: T/C endpoint: mean survival time, higher T/C = longer survival
Outline: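 Activity against a transplanted murine tumor was judged by comparing the compound group with a vehicle group. The outcome in the treated animals was divided by that in the controls.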

## O=C(CCN1CC1)Nc1cccc(NC(=O)CCN2CC2)c1
dose: 1.1 mg/kg/injection, schedule: Q01DX009 (ip), vehicle: Klucel (hydroxypropylcellulose) (HPC)
  T/C: 128 % of control
dose: 2.5 mg/kg/injection, schedule: Q01DX009 (ip), vehicle: Klucel (hydroxypropylcellulose) (HPC)
  T/C: 129 % of control
dose: 5.0 mg/kg/injection, schedule: Q01DX009 (ip), vehicle: Klucel (hydroxypropylcellulose) (HPC)
  T/C: 128 and 140 % of control
dose: 6.0 mg/kg/injection, schedule: Q01DX009 (ip), vehicle: Klucel (hydroxypropylcellulose) (HPC)
  T/C: 132 % of control
dose: 10.0 mg/kg/injection, schedule: Q01DX009 (ip), vehicle: Klucel (hydroxypropylcellulose) (HPC)
  T/C: 146 % of control
dose: 40.0 mg/kg/injection, schedule: Q01DX009 (ip), vehicle: Klucel (hydroxypropylcellulose) (HPC)
  survivor count: 5 of 6 and 6 of 6
dose: 80.0 mg/kg/injection, schedule: Q01DX009 (ip), vehicle: Klucel (hydroxypropylcellulose) (HPC)
  survivor count: 1 of 6

## OC(c1ccccc1)(c1ccccc1)c1nc2ccccc2o1
dose: 400.0 mg/kg/injection, schedule: Q01DX009 (ip), vehicle: saline with Tween-80
  survivor count: 3 of 6

## CC(=O)Oc1c(Cl)cc(Cl)c(Cl)c1[N+](=O)[O-]
dose: 400.0 mg/kg/injection, schedule: Q01DX001 (ip), vehicle: saline with Tween-80
  survivor count: 0 of 6

## CN(Cc1cnc2nc(N)nc(N)c2n1)c1ccc(C(=O)NC(CCC(=O)O)C(=O)NC(CC(=O)O)C(=O)O)cc1 (centres undefined)
dose: 10.0 mg/kg/injection, schedule: Q01DX009 (ip), vehicle: sodium bicarbonate
  T/C: 132 % of control
dose: 25.0 mg/kg/injection, schedule: Q01DX009 (ip), vehicle: sodium bicarbonate
  T/C: 147 % of control

## O=NN(CCCl)C(=O)Nc1ccc(Br)cn1
dose: 13.0 mg/kg/injection, schedule: Q01DX001 (ip), vehicle: carboxymethylcellulose (CMC)
  T/C: 125 % of control
dose: 30.0 mg/kg/injection, schedule: Q01DX001 (ip), vehicle: carboxymethylcellulose (CMC)
  T/C: 136 % of control

## CC1CC(C)(C)NC1=O (centres undefined)
dose: 100.0 mg/kg/injection, schedule: Q04DX003 (ip), vehicle: saline
  survivor count: 0 of 6
dose: 200.0 mg/kg/injection, schedule: Q04DX003 (ip), vehicle: saline
  survivor count: 0 of 6
dose: 400.0 mg/kg/injection, schedule: Q04DX003 (ip), vehicle: saline
  survivor count: 0 of 6

## CC[n+]1ccc(Nc2ccc(NC(=O)c3ccc(C(=O)Nc4ccc(Nc5cc[n+](CC)c(N)n5)cc4)cc3)cc2)nc1N
dose: 6.25 mg/kg/injection, schedule: Q01DX009 (ip), vehicle: saline
  T/C: 131 % of control
dose: 67.0 mg/kg/injection, schedule: Q01DX001 (ip), vehicle: Klucel (hydroxypropylcellulose) (HPC)
  T/C: 131 % of control
dose: 100.0 mg/kg/injection, schedule: Q01DX001 (ip), vehicle: Klucel (hydroxypropylcellulose) (HPC)
  T/C: 131 % of control
dose: 100.0 mg/kg/injection, schedule: Q01DX009 (ip), vehicle: saline
  T/C: 139 % of control
dose: 133.0 mg/kg/injection, schedule: Q01DX009 (ip), vehicle: saline
  T/C: 135 % of control [5 of 6 alive]

## CC(=O)OCC1OC(N2C(=O)/C(=C/c3ccc(Cl)cc3)SC2=S)C(OC(C)=O)C(OC(C)=O)C1OC(C)=O (centres undefined)
dose: 50.0 mg/kg/injection, schedule: Q01DX005 (ip), vehicle: distilled water + Tween-80
  survivor count: 3 of 6

## O=S1OCC2(CO1)COS(=O)OC2 (centres undefined)
dose: 12.5 mg/kg/injection, schedule: Q01DX001 (ip), vehicle: saline with Tween-80
  survivor count: 1 of 3

## C[N+](C)(C)c1ncnc2nc[nH]c12
dose: 200.0 mg/kg/injection, schedule: Q01DX009 (ip), vehicle: saline
  T/C: 129 and 140 % of control
dose: 400.0 mg/kg/injection, schedule: Q01DX009 (ip), vehicle: saline
  survivor count: 0 of 6

## COc1cccc2c1C(=O)c1c(O)c3c(c(O)c1C2=O)C[C@@](O)(C(=O)COC(=O)c1ccccc1)C[C@@H]3OC1CC(N)C(O)C(C)O1 (some centres undefined)
dose: 0.5 mg/kg/injection, schedule: Q04DX003 (ip), vehicle: saline with Tween-80
  T/C: 137 % of control
dose: 1.0 mg/kg/injection, schedule: Q01DX009 (ip), vehicle: saline sonified
  T/C: 139 % of control
dose: 1.0 mg/kg/injection, schedule: Q04DX003 (ip), vehicle: saline with Tween-80
  T/C: 145 % of control
dose: 1.4 mg/kg/injection, schedule: Q04DX003 (ip), vehicle: saline with Tween-80
  T/C: 126 % of control
dose: 2.0 mg/kg/injection, schedule: Q01DX009 (ip), vehicle: saline sonified
  T/C: 139 % of control
dose: 2.0 mg/kg/injection, schedule: Q04DX003 (ip), vehicle: Klucel (hydroxypropylcellulose) (HPC)
  T/C: 131 % of control
dose: 2.0 mg/kg/injection, schedule: Q04DX003 (ip), vehicle: saline with Tween-80
  T/C: 138 and 143 % of control
dose: 3.0 mg/kg/injection, schedule: Q04DX003 (ip), vehicle: Klucel (hydroxypropylcellulose) (HPC)
  T/C: 139 % of control
dose: 3.0 mg/kg/injection, schedule: Q04DX003 (ip), vehicle: saline with Tween-80
  T/C: 140 % of control
